# Several values for one entry are separate records, joined by “and”; a condition that tells them apart may be missing. Identical values can stand only once. Some of the results follow. Shown are side measurements of this screen, not its main read-out; they come without a call. The list favours compounds with an active or inconclusive main result. The note in brackets gives the kind of curve behind each potency; many fits are weak.
# Assay: qHTS Assay for Modulators of Lamin A Splicing
# Settings: HeLa LMNA splicing GFP/RFP minigene ratio, 48 h
# In short: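 S3 HeLa cells stably expressing lamin A-EGFP splicing minigene plus DsRed2, 600 cells/well, 48 h compound exposure at 37C. Laser-scanning cytometry; analysed as GFP (500-530 nm)/RFP (575-640 nm) total intensity ratio; 0.5% DMSO vehicle.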
# [1] = measured here: GFP splicing reporter channel
# [2] = measured here: RFP viability control channel
Structure (SMILES),AC50 [1],AC50 [2]
COc1ccc(/C=C2/CCc3ccccc3C2=O)cc1OC,"6.31 µM [rising, partial curve, poor fit]","22.4 µM [rising, partial curve]"
O=C(CCn1c(=S)[nH]c2ccccc2c1=O)NCCCN1CCCC1=O,"0.631 µM [falling, full curve, poor fit]","0.631 µM [falling, full curve, poor fit]"
CCCCC(=O)Nc1ccc(NC(=S)NC(=O)CC(C)C)cc1OC,"0.158 µM [falling, full curve, poor fit]","0.0126 µM [falling, full curve, poor fit]"
Clc1ccc(CSc2nnc(-c3ccccn3)n2Cc2ccco2)c(Cl)c1,"31.6 µM [rising, single point]","35.5 µM [rising, single point]"
CC(C)(C)[C@]1(O)CCN2C[C@H]3c4ccccc4CCc4cccc(c43)[C@@H]2C1,"0.178 µM [falling, full curve]","35.5 µM [rising, single point]"
CCOC(=O)c1sc2nc(CC(=O)OC)nc(N3CCN(c4ccccn4)CC3)c2c1C,"35.5 µM [rising, single point]","35.5 µM [rising, single point]"
COc1cccc(C2=CC(c3ccccc3F)n3c(nc4ccccc43)N2)c1 (stereo unspecified),,"0.158 µM [falling, full curve, poor fit]"
COc1ccccc1OC(C)C(=O)Nc1nc(-c2ccc(S(=O)(=O)N3CCOCC3)cc2)cs1 (stereo unspecified),,"12.6 µM [rising, single point]"
COc1ccc(S(=O)(=O)NN(C)c2nc(C(F)(F)F)nc3ccccc23)cc1,,"7.94 µM [falling, partial curve]"
Cc1[nH]c(=S)sc1Cc1ccc(Cl)c(Cl)c1,"15.8 µM [rising, single point]","25.1 µM [rising, single point]"
O=C(COc1cccc2ccccc12)NCc1cccnc1,"0.0112 µM [falling, full curve, poor fit]",
COCC(=O)N1c2nc(-c3ccco3)nn2C2(CCCCC2)[C@@H]2CCCC[C@@H]21,,"14.1 µM [falling, partial curve, poor fit]"
CCc1ccc2nc(N3C(=O)C(O)=C(C(=O)c4ccco4)C3c3cccs3)sc2c1 (stereo unspecified),,"35.5 µM [rising, single point]"
CC(C)[C@H](NC(=O)c1cccc(S(=O)(=O)N2CCOCC2)c1)C(=O)Nc1nc2ccccc2s1,,"22.4 µM [rising, partial curve]"
COc1ccc(C2=C(CN(C)C)C(c3ccccc3)c3ccccc3O2)cc1 (stereo unspecified),"1.58 µM [falling, full curve, poor fit]","4.47 µM [falling, partial curve] and 35.5 µM [rising, single point]"
CCOC(=O)c1c(N2C(=O)CC(Sc3ccccc3C(=O)O)C2=O)sc2c1CCCC2 (stereo unspecified),"12.6 µM [falling, partial curve, poor fit]","10 µM [falling, partial curve, poor fit]"

Structure (SMILES),AC50 [1],AC50 [2]
COc1ccc(S(=O)(=O)N2CCN(Cc3cccc(Cl)c3)CC2)cc1,,"31.6 µM [rising, single point]"
Cc1cccc(Oc2ncnc(N)c2[N+](=O)[O-])c1,,"12.6 µM [rising, partial curve]"
CCOc1ccccc1NC(=O)CN1C=NS(=O)(=O)c2ccccc21,"0.00447 µM [rising, full curve, poor fit]","2.51 µM [rising, full curve, poor fit]"
Cc1nn(CC(=O)NCc2ccccc2F)c(C)c1[N+](=O)[O-],,"0.0316 µM [falling, full curve, poor fit]"
O=C(CN1CCN(CCN2C(=O)c3cccc4cccc(c34)C2=O)CC1)c1ccc(Cl)cc1,,"0.00316 µM [rising, full curve, poor fit]"
O=C(Nc1ccc(CN2CCOCC2)cc1)c1cccc(-c2cc3ccccc3oc2=O)c1,,"17.8 µM [rising, single point]"
O=C(C1CC1c1ccccc1)N1CCN(c2cccc(Cl)c2)CC1 (stereo unspecified),"20 µM [rising, partial curve, poor fit]","25.1 µM [rising, single point]"
Nc1ccc(-n2ccnc2)cc1,,"35.5 µM [rising, single point]"
Cc1ccsc1C(=O)Nc1ccc(F)c([N+](=O)[O-])c1,,"14.1 µM [rising, single point]"
COCCCNC(=O)CSC1=Nc2ccccc2C2=NC(CC(=O)NCc3ccccc3)C(=O)N12 (stereo unspecified),,"0.447 µM [falling, full curve, poor fit]"
CNc1nc(-c2ccc(Cl)cc2)cs1,"12.6 µM [rising, single point]",
Cc1ccccc1NS(=O)(=O)c1ccc(OCC(=O)NCc2ccccn2)cc1,,"0.562 µM [rising, partial curve, poor fit]"
O=C(COc1ccccc1[N+](=O)[O-])Nc1ccc(-c2nc3ccccc3s2)cc1,"7.08 µM [falling, partial curve, poor fit]","35.5 µM [falling, single point]"
N/C(=N\OC(=O)/C=C/c1ccccc1)c1cccnc1,,"15.8 µM [falling, single point]"
CCCCN=C1NN=C(c2cccc([N+](=O)[O-])c2)CS1,"31.6 µM [rising, single point]","28.2 µM [rising, single point]"
CC(=O)O[C@H]1C(=O)[C@@]2(C)[C@H]([C@H](OC(=O)c3ccccc3)[C@]3(O)C[C@H](OC(=O)[C@H](O)C(NC(=O)c4ccccc4)c4ccccc4)C(C)=C1C3(C)C)[C@]1(OC(C)=O)CO[C@@H]1C[C@@H]2O (stereo partly specified),"0.0355 µM [falling, full curve, poor fit]","0.0355 µM [falling, full curve]"
